From doi:10.1101/260919
These are yes or no findings as the source states them, for the method shown. For some assays here: In cells and extracts the contact can be indirect. Some entries that bind do so weakly or less than the wild type. Where a sequence is shown, tags or fusion partners need not be part of it. One block for each binder: values may come before it.

Legend:
[1] = molecular target: T1, FLAG-tagged full-length NLRP1 (human), Q9C000; experiment: co-IP; conditions: remark: other sources report otherwise
T1 chain: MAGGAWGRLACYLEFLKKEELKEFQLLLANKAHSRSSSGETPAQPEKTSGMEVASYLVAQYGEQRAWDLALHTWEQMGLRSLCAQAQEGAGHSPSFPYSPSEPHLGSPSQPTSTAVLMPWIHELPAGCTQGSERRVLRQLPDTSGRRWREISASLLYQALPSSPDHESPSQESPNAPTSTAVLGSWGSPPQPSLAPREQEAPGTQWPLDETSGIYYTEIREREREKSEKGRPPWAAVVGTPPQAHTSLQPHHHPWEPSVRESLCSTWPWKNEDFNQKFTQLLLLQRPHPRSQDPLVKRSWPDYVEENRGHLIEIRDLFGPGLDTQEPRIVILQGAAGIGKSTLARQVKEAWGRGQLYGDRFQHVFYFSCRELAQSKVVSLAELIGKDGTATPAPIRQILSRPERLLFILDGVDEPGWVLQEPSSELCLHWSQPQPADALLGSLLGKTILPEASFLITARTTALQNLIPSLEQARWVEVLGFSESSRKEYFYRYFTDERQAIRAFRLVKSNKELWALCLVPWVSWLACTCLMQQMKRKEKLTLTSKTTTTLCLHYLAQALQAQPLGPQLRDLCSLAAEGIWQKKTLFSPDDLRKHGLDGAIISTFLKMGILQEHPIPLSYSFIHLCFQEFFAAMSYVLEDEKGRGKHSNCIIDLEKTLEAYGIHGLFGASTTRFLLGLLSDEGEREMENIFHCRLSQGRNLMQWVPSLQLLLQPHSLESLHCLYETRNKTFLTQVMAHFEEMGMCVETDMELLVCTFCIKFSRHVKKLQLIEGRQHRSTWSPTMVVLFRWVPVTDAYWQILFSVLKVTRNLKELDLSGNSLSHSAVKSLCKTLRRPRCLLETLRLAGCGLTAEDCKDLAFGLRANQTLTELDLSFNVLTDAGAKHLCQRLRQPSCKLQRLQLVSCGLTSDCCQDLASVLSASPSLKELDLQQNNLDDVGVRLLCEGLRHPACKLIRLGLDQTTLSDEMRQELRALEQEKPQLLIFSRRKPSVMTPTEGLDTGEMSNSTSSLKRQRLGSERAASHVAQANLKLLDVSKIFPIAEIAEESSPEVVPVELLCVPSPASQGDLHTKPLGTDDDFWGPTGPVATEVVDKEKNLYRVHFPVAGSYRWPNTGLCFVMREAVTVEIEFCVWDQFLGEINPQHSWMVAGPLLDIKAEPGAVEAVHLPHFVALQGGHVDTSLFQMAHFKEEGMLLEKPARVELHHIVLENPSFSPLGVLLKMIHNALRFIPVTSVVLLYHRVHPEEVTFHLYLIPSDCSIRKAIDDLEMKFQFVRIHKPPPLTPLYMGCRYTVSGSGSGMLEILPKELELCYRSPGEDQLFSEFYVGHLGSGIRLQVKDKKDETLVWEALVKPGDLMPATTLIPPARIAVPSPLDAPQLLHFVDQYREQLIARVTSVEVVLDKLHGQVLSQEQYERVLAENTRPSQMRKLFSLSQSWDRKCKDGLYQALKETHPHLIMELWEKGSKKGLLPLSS

[2] = molecular target: T1, FLAG-tagged full-length NLRP1 (human), …; experiment: native gel or EMSA; conditions: remark: other sources report otherwise

binding [1]: binds
B1: DPP9S (short splice isoform of DPP9), transfected, Q86TI2-1 1-863 (enzyme)
chain: MATTGTPTADRGDAAATDDPAARFQVQKHSWDGLRSIIHGSRKYSGLIVNKAPHDFQFVQKTDESGPHSHRLYYLGMPYGSRENSLLYSEIPKKVRKEALLLLSWKQMLDHFQATPHHGVYSREEELLRERKRLGVFGITSYDFHSESGLFLFQASNSLFHCRDGGKNGFMVSPMKPLEIKTQCSGPRMDPKICPADPAFFSFINNSDLWVANIETGEERRLTFCHQGLSNVLDDPKSAGVATFVIQEEFDRFTGYWWCPTASWEGSEGLKTLRILYEEVDESEVEVIHVPSPALEERKTDSYRYPRTGSKNPKIALKLAEFQTDSQGKIVSTQEKELVQPFSSLFPKVEYIARAGWTRDGKYAWAMFLDRPQQWLQLVLLPPALFIPSTENEEQRLASARAVPRNVQPYVVYEEVTNVWINVHDIFYPFPQSEGEDELCFLRANECKTGFCHLYKVTAVLKSQGYDWSEPFSPGEDEFKCPIKEEIALTSGEWEVLARHGSKIWVNEETKLVYFQGTKDTPLEHHLYVVSYEAAGEIVRLTTPGFSHSCSMSQNFDMFVSHYSSVSTPPCVHVYKLSGPDDDPLHKQPRFWASMMEAASCPPDYVPPEIFHFHTRSDVRLYGMIYKPHALQPGKKHPTVLFVYGGPQVQLVNNSFKGIKYLRLNTLASLGYAVVVIDGRGSCQRGLRFEGALKNQMGQVEIEDQVEGLQFVAEKYGFIDLSRVAIHGWSYGGFLSLMGLIHKPQVFKVAIAGAPVTVWMAYDTGYTERYMDVPENNQHGYEAGSVALHVEKLPNEPNRLLILHGFLDENVHFFHTNFLVSQLIRAGKPYQLQIYPNERHSIRCPESGEHYEVTLLHFLQEYL

binding [2]: binds
B2: FLAG-tagged full-length NLRP1, Q9C000 (protein)
chain: T1 chain
